Primary screen of a compound library

Data taken from ChEMBL document CHEMBL3988442, “University of Dundee, Small-Polar-MMV Screening Library” (2021).

Values are the deposited “Percent Effect”, in %. How 0% and 100% were set is not recorded. Most values in the screen are low, and negative values occur. This is an unselected part of the compounds tested.

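Whole-cell growth test on Mycobacterium tuberculosis, read after 4 days in a medium based on cholesterol and the lipid DPPC; the read-out is not stated. Tested at 500 µM. The record gives no direction; compounds that gave an IC50 in retests scored well above the rest, so higher reads as more growth inhibition. About 18,000 compounds were tested under these conditions; 5% (about 900) showed 50% or more at least once.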

| # | SMILES | Percent Effect |
|---|---|---|
| 1 | `CCOC(CC)CNC(=O)c1cnn(C(C)C)c1` (stereo not given) | 2.094% |
| 2 | `CCN(CC)CC(=O)NCc1cc(O)nc(C)n1` | 10.05% |
| 3 | `Cc1cc(N(C)C)n2nccc2n1` | -6.409% |
| 4 | `O=C(CCn1cncn1)N1CCN(c2nccs2)CC1` | -6.972% |
| 5 | `CN(C)C(=O)OC1CCNC1` (stereo not given) | -0.4111% |
| 6 | `Nc1nnc(SCc2ccno2)s1` | -2.424% |
| 7 | `Cc1cccnc1CN(C)Cc1nccn1C` | 33.84% |
| 8 | `Cc1nc2ccccc2nc1SCC(=O)NCCCO` | 2.084% |
| 9 | `O=C(NCC(O)CO)Nc1ccccc1CC(F)(F)F` (stereo not given) | -3.099% |
| 10 | `COc1cc(Cl)ccc1CN1CCNC(=O)C1` | 2.497% |
| 11 | `Cc1ccc(C(=O)NCc2nnc(N)o2)cc1Br` | 22.08% |
| 12 | `CSC(C)C(=O)N(CCC(N)=O)Cc1ccccc1` (stereo not given) | 11.79% |
| 13 | `CCOCCOC(C)C(=O)n1ncc(C#N)c1N` (stereo not given) | 13.33% |
| 14 | `COc1cccc(NC(=O)CN2CCCNCC2)c1` | 9.25% |
| 15 | `CC1CCN(c2ccc(N)cn2)CC1` | 8.153% |
| 16 | `CN(C)Cc1cccc(CNc2ncccc2C#N)c1` | 32.86% |
| 17 | `CSc1ccc(NC(=O)CNC(=O)OC(C)(C)C)cn1` | 44.06% |
| 18 | `CN(Cc1ncc[nH]1)c1cc(C2CC(N)C2)ncn1` (stereo not given) | -6.182% |
| 19 | `C=C(C)CNC(=O)NCCc1cnn(C)c1` | -10.92% |
| 20 | `Cc1cc(C)n(CC(C)CNC(=O)CCCN(C)C)n1` (stereo not given) | -4.437% |
| 21 | `O=C(CNC(=O)c1ccc2ccccc2c1)NC1CC1` | -3.696% |
| 22 | `CS(=O)(=O)n1cc(N)cn1` | 7.692% |
| 23 | `CCNC(=O)COc1cccc(C(C)N)c1` (stereo not given) | 8.801% |
| 24 | `CC(=O)NC(C)C(=O)Nc1ccc2ccccc2c1` (stereo not given) | -12.92% |
| 25 | `Cc1cccc(NC(=O)C(C)N)c1` (stereo not given) | 13.07% |
| 26 | `COc1c(CC(O)CO)cc2c(c1OC)OCO2` (stereo not given) | 15.78% |
| 27 | `CCC(N)c1ccccc1OCC(=O)N(C)C` (stereo not given) | 21.88% |
| 28 | `CC[C@H](N)c1ccccc1F` | 9.16% |
| 29 | `Cc1nnc(SCCCNC(=O)CC2CCCN2C)s1` (stereo not given) | 0.1117% |
| 30 | `O=C1CCOc2cc(O)c(F)cc21` | 4.581% |
| 31 | `CCCNCCc1ccccn1` | 7.218% |
| 32 | `COCCNC(=O)c1cccc(NC(=O)C(C)(C)C)c1` | -1.023% |
| 33 | `CNC(=O)CCC1CCCCN1` (stereo not given) | 0.4126% |
| 34 | `CCS(=O)(=O)N1CCCN(C(=O)NC(C)(C)C)CC1` | -3.882% |
| 35 | `Cc1cc(NC(=O)CN2CCN(C)CC2)n(C)n1` | 8.964% |
| 36 | `COc1ccccc1OC(C)CN` (stereo not given) | 85.77% |
| 37 | `CC(C)(C)C(CCO)NC(=O)c1ccsc1` (stereo not given) | -7.688% |
| 38 | `CC(C(=O)Nc1cc(Cl)c(Cl)cn1)S(C)(=O)=O` (stereo not given) | -3.911% |
| 39 | `NC1CC(N2CCOCC2)C1` (stereo not given) | 0.3199% |
| 40 | `NC(=O)CN(CCc1ccncc1)C1CCCC1` | 10.31% |
| 41 | `NCC1CCCOC1` (stereo not given) | -6.093% |
| 42 | `NCc1cccc(S(=O)(=O)C(F)(F)F)c1` | 7.725% |
| 43 | `CCC(=O)c1ccc(C(=O)OC)cc1` | 2.353% |
| 44 | `C[S+]([O-])C1(CNC(=O)c2ccnc3ccccc23)CC1` (stereo not given) | 2.381% |
| 45 | `Cc1cc(C(=O)NC2CCC(=O)N(C)C2)on1` (stereo not given) | 0.9079% |
| 46 | `NCCCc1cccs1` | 4.654% |
| 47 | `CCN1CCCC1CNS(=O)(=O)c1cn(C(C)C)cn1` (stereo not given) | -7.126% |
| 48 | `O=C(c1cc(C2CC2)on1)N1CCCN(C2CC2)CC1` | 46.81% |
| 49 | `O=C(c1ccccc1Cl)N1CCNCC1` | -22.6% |
| 50 | `CC(C)OCCCNC(=O)C1(C)CCCCN1` (stereo not given) | 1.068% |
| 51 | `CCNc1ncc(C(=O)N2CCC(N(C)C)C2)cn1` (stereo not given) | 2.856% |
| 52 | `CNCc1ccoc1` | -1.005% |
| 53 | `O=C(Cc1ccc2c(c1)OCO2)N[C@H]1C[C@@H]2OCC[C@H]12` | -5.133% |
| 54 | `CN1CCCN(C(=O)NCCCn2cccn2)CC1` | 1.432% |
| 55 | `O=C(NC1CCS(=O)(=O)C1)N1CCc2ccccc2C1` (stereo not given) | 2.901% |
| 56 | `Cc1cnc(C(=O)N(C)Cc2cc(C)on2)cn1` | -13.09% |
| 57 | `CC(C)(C)C(=O)N1CCN(CCCO)CC1` | -0.7733% |